Laboratory results as given in PubChem BioAssay AID624291 (National Center for Advancing Translational Sciences (NCATS), 2012).
The whole screen tested about 350,000 compounds, of which about 220 (0.063%) were called active. Inconclusive means that the source gave no clear call. Such entries were picked first, then a sample of the others. The call rests on the fitted dose curve; in most records, active means well fitted activation curve with a large enough effect; inconclusive means small, poorly fitted or top-dose-only effect; inactive means no such curve, though single readings can be large or run the other way. Potencies of inconclusive entries are doubtful fits and often do not repeat.

assay: qHTS for Activators of Integrin-Mediated Alleviation for Muscular Dystrophy; settings: alpha7betagal myoblasts, beta-gal FDG fluorescence, 48 h; activation: at 38.3 µM (top of the series); further: nearly all actives have a fitted effect of over 60% in size;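 on activation: 100% = response of the positive control SU9516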
Summary of the method: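 alpha7betagal+/- myoblasts (passage 13, 250/well) treated 48 h at 37C with compounds at 1:260 dilution of DMSO stock. Lysed, then beta-galactosidase activity read as FDG fluorescence (ex 480/em 540) after 30 min, with pre-read for autofluorescence.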
Potency means the concentration at half of the fitted maximal effect.

Potency, inconclusive:
CCCCNC(=O)c1cc(S(=O)(=O)N2CCCCC2)oc1C 28.2 µM [activator, single point]
O=C(CSc1nnc(COc2ccc(Cl)cc2)o1)N1CCCC1 5.01 µM [activator, partial curve, poor fit]
C=CCOc1ccc(/C=N/NC(=O)CN2CCCCC2)cc1OC 2.51 µM [activator, partial curve, poor fit]
Cc1ccc(NC(=S)NCCc2c[nH]c3ccccc23)c(C)c1 1.58 µM [activator, partial curve, poor fit]
COc1ccccc1NS(=O)(=O)c1cccc(C(=O)NCC(c2cccs2)N(C)C)c1 (stereo not drawn) 5.01 µM [activator, single point]
CC(C(=O)NCCC1=CCCCC1)N1C(=O)c2ccccc2C1=O (stereo not drawn) 31.6 µM [activator, single point]
Cc1cccc(CN2C(=O)c3ccccc3Sc3ccc(C(=O)NCCN4CCOCC4)cc32)c1 5.01 µM [activator, single point]
CCOC(=O)c1c(NC(=O)CSc2ncnc3ccccc23)sc(C)c1C 5.01 µM [activator, single point]
Cc1cc(-c2nnc(SCC(=O)Nc3nc(-c4ccc(Cl)cc4)cs3)o2)no1 2.51 µM [activator, single point]
COC(=O)c1cc(S(=O)(=O)N2CCC(C(N)=O)CC2)oc1C 17.8 µM [activator, single point]
COc1cccc(CNC(=O)CCC2CCCN(C(=O)c3cc(C)[nH]n3)C2)c1 (stereo not drawn) 11.2 µM [activator, partial curve, poor fit]
CCOC(=O)N1CCC(N2C(=O)c3ccc(C(=O)Nc4ccc(OC)c(OC)c4)cc3C2=O)CC1 2.51 µM [activator, single point]
COc1ccc(C2C(C(C)=O)=C(O)C(=O)N2c2ccccn2)cc1 (stereo not drawn) 28.2 µM [activator, single point]
C=CCn1c(=S)[nH]c2sc3c(c2c1=O)CCCC3 28.2 µM [activator, single point]
COc1ccc(CN2CCc3c([nH]c4ccccc34)C2)cc1Br 28.2 µM [activator, single point]
CC(C)(C)CC(=O)NC(=S)NCc1ccccc1 28.2 µM [activator, partial curve, poor fit]
CCc1cc(-c2n[nH]c(C)c2-c2ccccc2Cl)c(O)cc1OC 28.2 µM [activator, single point]
Cc1ccc(S(=O)(=O)N2CCN(C(=O)COC(=O)CCc3ccccc3)CC2)c(C)c1 14.1 µM [activator, single point]
CCN(CC)c1ccc(N2C(=O)/C(=C/c3ccccn3)SC2=S)cc1 11.2 µM [activator, partial curve, poor fit]
COC(=O)C1=C(O)/C(=C\c2ccc(OCC(=O)Nc3ccccc3)cc2)N=C1C 12.6 µM [activator, partial curve, poor fit]
Cc1ccc(/C=N/NC(=O)c2nnn(-c3nonc3N)c2CN(C)C)o1 2.24 µM [activator, partial curve, poor fit]
CC(C)OC(=O)[C@H]1[C@H](c2ccc(Cl)cc2)[C@@](C#N)(C(N)=O)[C@@H]2C=CC(C(N)=O)=CN21 7.94 µM [activator, partial curve]
Cc1[nH]c(=S)c(C#N)c(C)c1Cc1ccccc1 10 µM [activator, single point]
Cc1cc(OCc2cc(C(=O)N(Cc3nccn3C)C(C)C)no2)cc(C)c1Cl 28.2 µM [activator, single point]
Cc1onc(NC(=O)NC(=O)c2c(F)cccc2Cl)c1Br 5.01 µM [activator, single point]
CCc1nnc(NC(=O)c2ccc3ccccc3n2)s1 5.01 µM [activator, single point]
CC(=O)c1ccc(NS(=O)(=O)c2cc3c(cc2C)N(C(C)=O)CCO3)cc1 28.2 µM [activator, single point]
Cc1nn(-c2ccccc2)c(N2CCCC2)c1C=O 12.6 µM [activator, single point]
Cc1noc(C)c1COc1ccc(C(=O)Nc2cccnc2)cc1 3.55 µM [activator, partial curve, poor fit]
COc1cc(C=O)ccc1OCC(=O)Nc1ccc2c(c1)OCO2 2.24 µM [activator, full curve, poor fit]
Cc1ccn2nc(C(=O)OCC(=O)N(CC(C)C)C3CCS(=O)(=O)C3)nc2n1 (stereo not drawn) 3.55 µM [activator, single point]
CCn1cc(/C=C(\NC(=O)c2ccccc2Cl)C(=O)N2CCOCC2)c2ccccc21 0.501 µM [activator, partial curve, poor fit]
O=C(NNC(=S)Nc1ccccc1)c1ccc(O)cc1 3.16 µM [activator, single point]
Cc1nn(C)c(N)c1[N+](=O)[O-] 5.01 µM [activator, single point]
COc1ccc(C(c2nnnn2C(C)C)N2CCN(C(=O)c3ccco3)CC2)cc1 (stereo not drawn) 2.24 µM [activator, full curve, poor fit]
COc1ccc(OCCCC(=O)OCC(=O)c2ccc3c(c2)NC(=O)CO3)cc1 10 µM [activator, partial curve, poor fit]
CCCC/C=C1\CCc2c([nH]c3ccccc23)C1=O 5.01 µM [activator, single point]
Cc1ccsc1/C=N/NC(=O)Cn1nc(C)c([N+](=O)[O-])c1C 2.24 µM [activator, full curve, poor fit]
Cc1ccc(NC(=O)CCC(=O)NNC(=O)COc2ccc([N+](=O)[O-])cc2)c(C)c1 2.51 µM [activator, single point]
CCC(CC)c1nnc(NC(=O)c2ccc(N3CCCC3=O)cc2)s1 15.8 µM [activator, partial curve, poor fit]
COc1ccc(CS(=O)(=O)CC(C)(O)c2ccc(Cl)cc2)cc1 (stereo not drawn) 11.2 µM [activator, partial curve, poor fit]
Cc1cc(OCc2nnc(SCC(=O)O)n2-c2ccccc2)ccc1Cl 5.01 µM [activator, single point]
O=C(CCc1nnc2n(Cc3ccc(F)cc3)c(=O)c3ccccc3n12)N1CCN(c2ccccn2)CC1 14.1 µM [activator, partial curve, poor fit]
CCN(CC(=O)NCc1ccc(F)cc1)C(=O)CN1CCN(c2ccccc2OC)CC1 5.01 µM [activator, single point]
COCCNC(=S)N(CCc1c(C)[nH]c2ccc(F)cc12)Cc1cccs1 5.01 µM [activator, single point]

Potency, inactive:
O=C(NCCCN1CCCC1=O)C1CCCO1 (stereo not drawn)
O=[N+]([O-])c1cccc(-c2csc(Nc3ccccc3)n2)c1
CCCCOP(=O)(OCCCC)C(Nc1ccccc1)c1ccc2c(c1)OCO2 (stereo not drawn)
O=C(/C=C/c1cccs1)N1CCc2ccccc21
CCc1cccc(C)c1NC(=O)c1ccc(CN2CCc3ccccc3C2)cc1
CCCCNCc1ccc(OCc2ccc(Cl)nc2)c(OC)c1
Cc1sc(NC(=O)C2CC=CCC2C(=O)O)c(C(=O)OC(C)C)c1C (stereo not drawn)
CCOC(=O)/C=C/[C@H]1Cc2ccccc2CO1
O=C(/C=C/c1ccc(F)cc1)Nc1ccc(S(=O)(=O)N2CCOCC2)cc1
CC(C)Cn1c(/C=C/c2ccco2)nc2ccccc21
C/C(=N\OC(=O)c1ccc(Br)cc1)c1ccccn1
Cc1cc(C(F)(F)F)c(C#N)c(SCC(=O)Nc2nc3cc(Br)ccc3s2)n1
COc1cccc(C2C(C(=O)/C=C/c3ccco3)=C(O)C(=O)N2CCN2CCOCC2)c1 (stereo not drawn)
Cc1cc(C)cc(OCC(=O)Nc2ccc(N3CCN(C(=O)c4ccco4)CC3)cc2)c1
CC1(C)CC(=O)c2cc(C(=O)NC3CCSC3=O)c(=O)n(-c3ccccc3)c2C1 (stereo not drawn)
CC1(C)CC(=O)c2c(O)cc(OCC(=O)Nc3ccc(CCO)cc3)cc2O1
CC1CCN(c2nc(-c3ccncc3)nc3ccccc23)CC1
Cc1ccc2c(C)c(C(=O)NCCN3CCCC(O)C3)oc2c1C (stereo not drawn)
CCn1c(=O)c(C(=O)NNC(=O)c2cccc(Cl)c2)c(O)c2ccccc21
CC1Cc2ccccc2N1S(=O)(=O)c1cccc(C(=O)N2CCN(c3ncccn3)CC2)c1 (stereo not drawn)
O=C(CSc1nnc(-c2ccccc2F)n1C1CC1)NC(=O)c1cccc([N+](=O)[O-])c1
CCOC(=O)c1c(C)nc2c(c(SC)nn2-c2ccccc2)c1N

Reprinted at random: 5 records from the list.
Potency, inactive:
CCn1c(=O)c(C(=O)NNC(=O)c2cccc(Cl)c2)c(O)c2ccccc21
CC1(C)CC(=O)c2cc(C(=O)NC3CCSC3=O)c(=O)n(-c3ccccc3)c2C1 (stereo not drawn)
CCOC(=O)c1c(C)nc2c(c(SC)nn2-c2ccccc2)c1N
CCCCOP(=O)(OCCCC)C(Nc1ccccc1)c1ccc2c(c1)OCO2 (stereo not drawn)
CC1CCN(c2nc(-c3ccncc3)nc3ccccc23)CC1

Following part:

activation, inconclusive:
Cc1ccc(/C=C(\C#N)c2nc3ccccc3[nH]2)s1 12.2% [activator]
